The assay deals with T1, Human recombinant PEAR1 extracellular part (platelet and endothelial aggregation receptor 1), His-tagged (human) (UniProt Q5VY43).
T1 sequence: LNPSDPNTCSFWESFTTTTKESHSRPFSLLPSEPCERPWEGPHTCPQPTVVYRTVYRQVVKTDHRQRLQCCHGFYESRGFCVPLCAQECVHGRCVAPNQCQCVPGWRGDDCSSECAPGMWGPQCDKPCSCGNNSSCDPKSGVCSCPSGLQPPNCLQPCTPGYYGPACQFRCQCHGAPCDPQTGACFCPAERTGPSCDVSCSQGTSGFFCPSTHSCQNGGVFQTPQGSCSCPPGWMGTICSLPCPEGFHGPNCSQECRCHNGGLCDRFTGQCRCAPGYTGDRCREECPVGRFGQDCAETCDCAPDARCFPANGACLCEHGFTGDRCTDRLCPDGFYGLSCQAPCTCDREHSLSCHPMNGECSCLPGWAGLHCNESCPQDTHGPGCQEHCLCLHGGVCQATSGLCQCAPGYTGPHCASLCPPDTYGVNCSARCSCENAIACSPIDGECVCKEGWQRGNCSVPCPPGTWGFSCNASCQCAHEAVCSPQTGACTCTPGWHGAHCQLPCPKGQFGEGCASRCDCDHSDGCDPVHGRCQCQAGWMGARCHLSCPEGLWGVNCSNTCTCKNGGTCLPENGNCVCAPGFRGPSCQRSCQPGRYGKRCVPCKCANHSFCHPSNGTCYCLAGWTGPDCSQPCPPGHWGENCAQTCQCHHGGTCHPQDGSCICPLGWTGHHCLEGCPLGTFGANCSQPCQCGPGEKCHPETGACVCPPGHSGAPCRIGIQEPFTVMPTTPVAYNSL
In words: pull-down; recombinant human PEAR1 (100 nM) immobilised on Ni-NTA magnetic beads, incubated with 100 nM recombinant human CTSD, SEMA6D or LOXL2 in 50 mM NaH2PO4, 300 mM NaCl, 20 mM imidazole, pH 8.0, 1 h at room temperature; control Ni-NTA beads; immunoblotting; both purified. (In western blotting, separated proteins are transferred to a membrane and probed.)

Protein sequences, listed by entry. Tags and fused reporters are not part of them. Lines headed by an entry give the natural chain unless they say otherwise; changes in a name come on top.
UniProt P07339: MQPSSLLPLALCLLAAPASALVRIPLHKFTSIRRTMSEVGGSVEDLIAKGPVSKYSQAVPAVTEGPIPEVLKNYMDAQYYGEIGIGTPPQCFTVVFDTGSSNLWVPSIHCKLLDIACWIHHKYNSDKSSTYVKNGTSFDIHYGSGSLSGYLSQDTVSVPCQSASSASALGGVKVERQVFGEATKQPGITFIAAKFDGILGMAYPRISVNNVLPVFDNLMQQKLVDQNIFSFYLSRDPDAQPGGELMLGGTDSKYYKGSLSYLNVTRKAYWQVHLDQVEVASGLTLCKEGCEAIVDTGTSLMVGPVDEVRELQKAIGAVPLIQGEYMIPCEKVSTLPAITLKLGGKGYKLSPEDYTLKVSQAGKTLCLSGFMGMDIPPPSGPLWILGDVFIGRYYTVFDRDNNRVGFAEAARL

These are yes or no findings as the source states them, for the method shown. A result given as binding can be weak or reduced; the word gives no strength. Tags and fused reporters may be left off the sequences shown.

In the case of “Recombinant human cathepsin D (CTSD) (from UniProt P07339) (enzyme)”, the binding result is on record as “binds”.

(Values after article PMC12581312, “Lung endothelial PEAR1 induces tumor cell dormancy” (Molecular Cancer, 2025).)
